Data: patent publication US5837673 (dated 1998)

test: general procedure: solution-phase peptide synthesis; N,N'-dicyclohexylcarbodiimide with 4-dimethylaminopyridine (ester-linked example); settings: conjugation step, hydrochloride

Q: Which conjugation yield does the source give for “7-Ethyl-10-[3'-(t-butoxycarbonyl-glycyl-glycyl-glycyl-glycylamino)propyloxy]-(20S)-camptothecin” here?
A: 84%

Q: For “7-ethyl-10-[3'-(t-butoxycarbonyl-glycyl-glycyl-L-phenylalanyl-glycyloxy)propyloxy]-(20S)-camptothecin”, which conjugation yield is on record?
A: 74%

Q: For “7-ethyl-10-{2'-[2"-(t-butoxycarbonyl-glycyl-glycyl-L-phenylalanyl-glycylamino)ethyloxy]ethyloxy}-(20S)-camptothecin”, which conjugation yield is on record?
A: 79%

Q: For “10-[3'-(t-butoxycarbonyl-glycyl-glycyl-L-phenylalanyl-glycylamino)propyloxy]-7-ethyl-(20S)-camptothecin”, which conjugation yield is on record?
A: 62%

same assay, conditions: late stage modification step, hydrochloride

Q: With “7-ethyl-10-[3'-(glycyl-glycyl-L-phenylalanyl-glycyloxy)-propyloxy]-(20S)-camptothecin hydrochloride” as the substance, how does the step yield read?
A: 72%

Q: For “7-ethyl-10-[3'-(glycyl-glycyl-glycyl-glycylamino)propyloxy]-(20S)-camptothecin hydrochloride”, which step yield is on record?
A: 99%

Q: For “7-ethyl-10-{2'-[2"-(glycyl-glycyl-L-phenylalanyl-glycyl-amino)ethyloxy]ethyloxy}-(20S)-camptothecin hydrochloride”, which step yield is on record?
A: 65%

Q: For “10-[3'-(glycyl-glycyl-L-phenylalanyl-glycylamino)propyloxy]-7-ethyl-(20S)- camptothecin hydrochloride”, which step yield is on record?
A: 88%
